# The list shows a part of the results.
# Columns and labels:
# Assay in all cases: glycan array binding signal (z-score within array); higher = stronger binding
# Details in all cases: glycan notation: IUPAC condensed, linker removed
# Gal3S6S(b1-4)GlcNAc = biological target: Gal3S6S(b1-4)GlcNAc
# How it was run: (§1)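 Negative Z-scores can be read as non-binding. The Z-score is calculated within each array and then averaged across arrays of one protein sequence at different concentrations or buffers and across linkers. Arrays, 3228 in all, were curated from the Consortium for Functional Glycomics database and kept only where the protein sequence was available.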
# Gal3S6S(b1-4)GlcNAc6S = biological target: Gal3S6S(b1-4)GlcNAc6S
# How it was run: as §1
# Gal4S(b1-4)GlcNAc = biological target: Gal4S(b1-4)GlcNAc
# How it was run: as §1
# Gal4S6S(b1-4)GlcNAc = biological target: Gal4S6S(b1-4)GlcNAc
# How it was run: as §1
# Gal6P(b1-4)GlcNAc = biological target: Gal6P(b1-4)GlcNAc
# How it was run: as §1
# Gal6S(b1-3)GlcNAc = biological target: Gal6S(b1-3)GlcNAc
# How it was run: as §1
# Gal6S(b1-3)GlcNAc6S = biological target: Gal6S(b1-3)GlcNAc6S
# How it was run: as §1
# Gal6S(b1-4)Glc = biological target: Gal6S(b1-4)Glc
# How it was run: as §1
# Gal6S(b1-4)Glc6S = biological target: Gal6S(b1-4)Glc6S
# How it was run: as §1
# Gal6S(b1-4)GlcNAc = biological target: Gal6S(b1-4)GlcNAc
# How it was run: as §1
# Gal6S(b1-4)GlcNAc6S = biological target: Gal6S(b1-4)GlcNAc6S
# How it was run: as §1
# GalNAc(a1-3)Gal = biological target: GalNAc(a1-3)Gal
# How it was run: as §1
# GalNAc(a1-3)GalNAc = biological target: GalNAc(a1-3)GalNAc
# How it was run: as §1
# [1] = biological target: GalNAc(a1-3)GalNAc(b1-3)Gal(a1-4)Gal(b1-4)Glc
# How it was run: as §1
# [2] = biological target: GalNAc(a1-3)GalNAc(b1-3)Gal(a1-4)Gal(b1-4)GlcNAc
# How it was run: as §1
# GalNAc(b1-3)Gal = biological target: GalNAc(b1-3)Gal
# How it was run: as §1
# [3] = biological target: GalNAc(b1-3)Gal(a1-4)Gal(b1-4)GlcNAc
# How it was run: as §1
# [4] = biological target: GalNAc(b1-3)Gal(a1-4)Gal(b1-4)GlcNAc(b1-3)Gal(b1-4)Glc
# How it was run: as §1
# [5] = biological target: GalNAc(b1-3)Gal(a1-6)Gal(b1-4)Glc
# How it was run: as §1
# GalNAc(b1-3)GalNAc = biological target: GalNAc(b1-3)GalNAc
# How it was run: as §1
# GalNAc(b1-3)GlcNAc = biological target: GalNAc(b1-3)GlcNAc
# How it was run: as §1
# GalNAc(b1-4)Gal(b1-4)Glc = biological target: GalNAc(b1-4)Gal(b1-4)Glc
# How it was run: as §1
# GalNAc(b1-4)GlcNAc = biological target: GalNAc(b1-4)GlcNAc
# How it was run: as §1
# [6] = biological target: GalNAc(b1-4)GlcNAc(b1-2)Man
# How it was run: as §1
# [7] = biological target: GalNAc(b1-4)GlcNAc(b1-2)Man(a1-3)[GalNAc(b1-4)GlcNAc(b1-2)Man(a1-6)]Man(b1-4)GlcNAc(b1-4)GlcNAc
# How it was run: as §1
# [8] = biological target: GalNAc(b1-4)GlcNAc(b1-3)GalNAc(b1-4)GlcNAc
# How it was run: as §1
# GalNAc(b1-4)GlcNAc6S = biological target: GalNAc(b1-4)GlcNAc6S
# How it was run: as §1
# GalNAc(b1-6)GalNAc = biological target: GalNAc(b1-6)GalNAc
# How it was run: as §1
# GalNAc3S(b1-4)GlcNAc = biological target: GalNAc3S(b1-4)GlcNAc
# How it was run: as §1
# GalNAc3S(b1-4)GlcNAc3S = biological target: GalNAc3S(b1-4)GlcNAc3S
# How it was run: as §1
# [9] = biological target: GalNAc3S(b1-4)[Fuc(a1-3)]GlcNAc
# How it was run: as §1
# GalNAc4S6S(b1-4)GlcNAc = biological target: GalNAc4S6S(b1-4)GlcNAc
# How it was run: as §1
# GalNAc6S(b1-4)GlcNAc = biological target: GalNAc6S(b1-4)GlcNAc
# How it was run: as §1
# Glc(a1-4)Glc = biological target: Glc(a1-4)Glc
# How it was run: as §1
# [10] = biological target: Glc(a1-4)Glc(a1-4)Glc(a1-4)Glc
# How it was run: as §1
# Glc(a1-6)Glc(a1-6)Glc = biological target: Glc(a1-6)Glc(a1-6)Glc
# How it was run: as §1
# [11] = biological target: Glc(a1-6)Glc(a1-6)Glc(a1-6)Glc
# How it was run: as §1
# Glc(b1-4)Glc = biological target: Glc(b1-4)Glc
# How it was run: as §1
binder,measurement,setting,value
SJCP1084 (Schistosoma japonicum) (protein) MRIINLVIISTALLLINLLQTKSQANGEDTKNGTPDDPGLTKSTELKVEVQALLKDKKTNMRVKWNENLLDNTKPEYHNLRDEACELLLQIVRSVVPLSQDDGECKDVTFTKYVVGTKDGAVNVKLTITFKDSVAINQKPMDLKLKLENDFKNLQSESTLKATKPTFTVKVEKRLIPISKPQTTPPTTAKNDASKENVGDIGGEDSTVPTAAPATAASANEEKDEGDKDNKDSQHPNVLTSNVNDRNLIIALVALMILAIGVALTAAVKQR,glycan array binding signal (z-score),Gal3S6S(b1-4)GlcNAc,0.244
same,glycan array binding signal (z-score),Gal3S6S(b1-4)GlcNAc6S,0.049
same,glycan array binding signal (z-score),Gal4S(b1-4)GlcNAc,1.12
same,glycan array binding signal (z-score),Gal4S6S(b1-4)GlcNAc,-0.509
same,glycan array binding signal (z-score),Gal6P(b1-4)GlcNAc,-0.319
same,glycan array binding signal (z-score),Gal6S(b1-3)GlcNAc,0.36
same,glycan array binding signal (z-score),Gal6S(b1-3)GlcNAc6S,1.63
same,glycan array binding signal (z-score),Gal6S(b1-4)Glc,-0.09
same,glycan array binding signal (z-score),Gal6S(b1-4)Glc6S,0.296
same,glycan array binding signal (z-score),Gal6S(b1-4)GlcNAc,0.199
same,glycan array binding signal (z-score),Gal6S(b1-4)GlcNAc6S,-0.044
same,glycan array binding signal (z-score),GalNAc(a1-3)Gal,-1.11
same,glycan array binding signal (z-score),GalNAc(a1-3)GalNAc,0.379
same,glycan array binding signal (z-score),[1],-1.12
same,glycan array binding signal (z-score),[2],-0.298
same,glycan array binding signal (z-score),GalNAc(b1-3)Gal,-0.955
same,glycan array binding signal (z-score),[3],0.632
same,glycan array binding signal (z-score),[4],-0.671
same,glycan array binding signal (z-score),[5],-0.545
same,glycan array binding signal (z-score),GalNAc(b1-3)GalNAc,-0.527
same,glycan array binding signal (z-score),GalNAc(b1-3)GlcNAc,-0.694
same,glycan array binding signal (z-score),GalNAc(b1-4)Gal(b1-4)Glc,0.083
same,glycan array binding signal (z-score),GalNAc(b1-4)GlcNAc,1.94
same,glycan array binding signal (z-score),[6],-0.37
same,glycan array binding signal (z-score),[7],0.187
same,glycan array binding signal (z-score),[8],1.08
same,glycan array binding signal (z-score),GalNAc(b1-4)GlcNAc6S,0.186
same,glycan array binding signal (z-score),GalNAc(b1-6)GalNAc,-1.19
same,glycan array binding signal (z-score),GalNAc3S(b1-4)GlcNAc,-0.158
same,glycan array binding signal (z-score),GalNAc3S(b1-4)GlcNAc3S,0.188
same,glycan array binding signal (z-score),[9],-1.11
same,glycan array binding signal (z-score),GalNAc4S6S(b1-4)GlcNAc,-0.216
same,glycan array binding signal (z-score),GalNAc6S(b1-4)GlcNAc,-0.739
same,glycan array binding signal (z-score),Glc(a1-4)Glc,-0.473
same,glycan array binding signal (z-score),[10],-0.793
same,glycan array binding signal (z-score),Glc(a1-6)Glc(a1-6)Glc,-0.059
same,glycan array binding signal (z-score),[11],0.019
same,glycan array binding signal (z-score),Glc(b1-4)Glc,-1.32

# Taken from the entries so far (12 entries):
binder,measurement,setting,value
SJCP1084 (Schistosoma japonicum) (protein) MRIINLVIISTALLLINLLQTKSQANGEDTKNGTPDDPGLTKSTELKVEVQALLKDKKTNMRVKWNENLLDNTKPEYHNLRDEACELLLQIVRSVVPLSQDDGECKDVTFTKYVVGTKDGAVNVKLTITFKDSVAINQKPMDLKLKLENDFKNLQSESTLKATKPTFTVKVEKRLIPISKPQTTPPTTAKNDASKENVGDIGGEDSTVPTAAPATAASANEEKDEGDKDNKDSQHPNVLTSNVNDRNLIIALVALMILAIGVALTAAVKQR,glycan array binding signal (z-score),Gal6S(b1-4)GlcNAc6S,-0.044
same,glycan array binding signal (z-score),GalNAc(a1-3)Gal,-1.11
same,glycan array binding signal (z-score),GalNAc(a1-3)GalNAc,0.379
same,glycan array binding signal (z-score),[1],-1.12
same,glycan array binding signal (z-score),[2],-0.298
same,glycan array binding signal (z-score),GalNAc(b1-3)Gal,-0.955
same,glycan array binding signal (z-score),[3],0.632
same,glycan array binding signal (z-score),[4],-0.671
same,glycan array binding signal (z-score),[5],-0.545
same,glycan array binding signal (z-score),GalNAc(b1-3)GalNAc,-0.527
same,glycan array binding signal (z-score),GalNAc(b1-3)GlcNAc,-0.694
same,glycan array binding signal (z-score),GalNAc(b1-4)Gal(b1-4)Glc,0.083

# From the supplement of paper PMC8728848
